Measured values taken from the supplement of paper PMC10849652.
The other results are listed elsewhere or left out.

The chains behind the UniProt entries cited, without tags or fusion partners. Where a name states a change or a piece, a line headed by the entry shows the natural chain unless it says otherwise.
UniProt P10114: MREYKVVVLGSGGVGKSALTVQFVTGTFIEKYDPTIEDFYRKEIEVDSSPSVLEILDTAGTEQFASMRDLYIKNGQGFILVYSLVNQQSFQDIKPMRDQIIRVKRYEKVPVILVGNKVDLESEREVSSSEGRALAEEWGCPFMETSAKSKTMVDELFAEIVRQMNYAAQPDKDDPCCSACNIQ
UniProt Q9NXS2: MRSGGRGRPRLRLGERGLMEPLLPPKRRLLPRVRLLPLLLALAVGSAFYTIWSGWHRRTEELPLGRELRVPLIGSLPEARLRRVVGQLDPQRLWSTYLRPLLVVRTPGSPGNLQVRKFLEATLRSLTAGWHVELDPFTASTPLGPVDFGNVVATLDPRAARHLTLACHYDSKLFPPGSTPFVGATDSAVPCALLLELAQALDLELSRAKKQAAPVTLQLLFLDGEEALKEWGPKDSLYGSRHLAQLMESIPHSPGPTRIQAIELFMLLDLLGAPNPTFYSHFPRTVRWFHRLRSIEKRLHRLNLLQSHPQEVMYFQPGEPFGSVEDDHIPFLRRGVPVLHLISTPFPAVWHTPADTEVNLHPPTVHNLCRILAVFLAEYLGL
UniProt Q15907: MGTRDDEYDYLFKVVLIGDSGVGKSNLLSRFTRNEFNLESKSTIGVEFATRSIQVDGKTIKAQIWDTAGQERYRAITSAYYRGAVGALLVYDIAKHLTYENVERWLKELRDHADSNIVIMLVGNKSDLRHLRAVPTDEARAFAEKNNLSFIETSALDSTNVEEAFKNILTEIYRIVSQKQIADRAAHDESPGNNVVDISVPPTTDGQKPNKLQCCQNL
UniProt Q06609, whole entry, looked up: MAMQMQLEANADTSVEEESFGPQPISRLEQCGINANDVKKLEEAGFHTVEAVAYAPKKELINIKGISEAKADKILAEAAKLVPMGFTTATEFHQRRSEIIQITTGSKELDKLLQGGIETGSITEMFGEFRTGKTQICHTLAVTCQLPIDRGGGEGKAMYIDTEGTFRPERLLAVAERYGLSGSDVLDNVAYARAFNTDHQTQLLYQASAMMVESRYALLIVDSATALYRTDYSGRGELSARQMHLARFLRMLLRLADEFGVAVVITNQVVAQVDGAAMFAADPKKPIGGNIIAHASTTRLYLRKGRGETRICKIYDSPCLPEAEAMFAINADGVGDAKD
UniProt P61019: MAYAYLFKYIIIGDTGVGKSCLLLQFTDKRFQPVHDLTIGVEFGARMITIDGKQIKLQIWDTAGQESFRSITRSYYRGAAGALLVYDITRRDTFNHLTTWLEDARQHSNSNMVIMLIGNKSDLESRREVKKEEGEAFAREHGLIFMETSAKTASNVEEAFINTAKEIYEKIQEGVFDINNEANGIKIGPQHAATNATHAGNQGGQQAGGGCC
UniProt Q9H0U4: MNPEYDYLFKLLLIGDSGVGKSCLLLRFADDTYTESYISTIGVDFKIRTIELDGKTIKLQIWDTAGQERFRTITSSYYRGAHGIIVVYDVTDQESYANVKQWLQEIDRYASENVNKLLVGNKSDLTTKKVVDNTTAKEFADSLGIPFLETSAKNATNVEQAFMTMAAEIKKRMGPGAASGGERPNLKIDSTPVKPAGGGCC
UniProt Q9H0R6: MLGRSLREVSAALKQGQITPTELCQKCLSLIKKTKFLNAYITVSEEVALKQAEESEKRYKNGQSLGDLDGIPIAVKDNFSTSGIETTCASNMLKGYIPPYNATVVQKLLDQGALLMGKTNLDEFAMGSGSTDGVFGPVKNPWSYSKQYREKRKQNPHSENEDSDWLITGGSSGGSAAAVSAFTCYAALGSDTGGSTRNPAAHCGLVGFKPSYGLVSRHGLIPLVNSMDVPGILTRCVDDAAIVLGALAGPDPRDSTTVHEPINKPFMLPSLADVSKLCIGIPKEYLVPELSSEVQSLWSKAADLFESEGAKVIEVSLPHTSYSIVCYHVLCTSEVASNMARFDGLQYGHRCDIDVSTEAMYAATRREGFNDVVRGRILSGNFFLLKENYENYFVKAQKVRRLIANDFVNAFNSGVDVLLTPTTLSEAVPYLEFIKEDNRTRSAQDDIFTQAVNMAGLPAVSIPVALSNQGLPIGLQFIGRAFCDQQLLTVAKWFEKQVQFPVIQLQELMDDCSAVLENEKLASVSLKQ
UniProt P49792, whole entry, looked up: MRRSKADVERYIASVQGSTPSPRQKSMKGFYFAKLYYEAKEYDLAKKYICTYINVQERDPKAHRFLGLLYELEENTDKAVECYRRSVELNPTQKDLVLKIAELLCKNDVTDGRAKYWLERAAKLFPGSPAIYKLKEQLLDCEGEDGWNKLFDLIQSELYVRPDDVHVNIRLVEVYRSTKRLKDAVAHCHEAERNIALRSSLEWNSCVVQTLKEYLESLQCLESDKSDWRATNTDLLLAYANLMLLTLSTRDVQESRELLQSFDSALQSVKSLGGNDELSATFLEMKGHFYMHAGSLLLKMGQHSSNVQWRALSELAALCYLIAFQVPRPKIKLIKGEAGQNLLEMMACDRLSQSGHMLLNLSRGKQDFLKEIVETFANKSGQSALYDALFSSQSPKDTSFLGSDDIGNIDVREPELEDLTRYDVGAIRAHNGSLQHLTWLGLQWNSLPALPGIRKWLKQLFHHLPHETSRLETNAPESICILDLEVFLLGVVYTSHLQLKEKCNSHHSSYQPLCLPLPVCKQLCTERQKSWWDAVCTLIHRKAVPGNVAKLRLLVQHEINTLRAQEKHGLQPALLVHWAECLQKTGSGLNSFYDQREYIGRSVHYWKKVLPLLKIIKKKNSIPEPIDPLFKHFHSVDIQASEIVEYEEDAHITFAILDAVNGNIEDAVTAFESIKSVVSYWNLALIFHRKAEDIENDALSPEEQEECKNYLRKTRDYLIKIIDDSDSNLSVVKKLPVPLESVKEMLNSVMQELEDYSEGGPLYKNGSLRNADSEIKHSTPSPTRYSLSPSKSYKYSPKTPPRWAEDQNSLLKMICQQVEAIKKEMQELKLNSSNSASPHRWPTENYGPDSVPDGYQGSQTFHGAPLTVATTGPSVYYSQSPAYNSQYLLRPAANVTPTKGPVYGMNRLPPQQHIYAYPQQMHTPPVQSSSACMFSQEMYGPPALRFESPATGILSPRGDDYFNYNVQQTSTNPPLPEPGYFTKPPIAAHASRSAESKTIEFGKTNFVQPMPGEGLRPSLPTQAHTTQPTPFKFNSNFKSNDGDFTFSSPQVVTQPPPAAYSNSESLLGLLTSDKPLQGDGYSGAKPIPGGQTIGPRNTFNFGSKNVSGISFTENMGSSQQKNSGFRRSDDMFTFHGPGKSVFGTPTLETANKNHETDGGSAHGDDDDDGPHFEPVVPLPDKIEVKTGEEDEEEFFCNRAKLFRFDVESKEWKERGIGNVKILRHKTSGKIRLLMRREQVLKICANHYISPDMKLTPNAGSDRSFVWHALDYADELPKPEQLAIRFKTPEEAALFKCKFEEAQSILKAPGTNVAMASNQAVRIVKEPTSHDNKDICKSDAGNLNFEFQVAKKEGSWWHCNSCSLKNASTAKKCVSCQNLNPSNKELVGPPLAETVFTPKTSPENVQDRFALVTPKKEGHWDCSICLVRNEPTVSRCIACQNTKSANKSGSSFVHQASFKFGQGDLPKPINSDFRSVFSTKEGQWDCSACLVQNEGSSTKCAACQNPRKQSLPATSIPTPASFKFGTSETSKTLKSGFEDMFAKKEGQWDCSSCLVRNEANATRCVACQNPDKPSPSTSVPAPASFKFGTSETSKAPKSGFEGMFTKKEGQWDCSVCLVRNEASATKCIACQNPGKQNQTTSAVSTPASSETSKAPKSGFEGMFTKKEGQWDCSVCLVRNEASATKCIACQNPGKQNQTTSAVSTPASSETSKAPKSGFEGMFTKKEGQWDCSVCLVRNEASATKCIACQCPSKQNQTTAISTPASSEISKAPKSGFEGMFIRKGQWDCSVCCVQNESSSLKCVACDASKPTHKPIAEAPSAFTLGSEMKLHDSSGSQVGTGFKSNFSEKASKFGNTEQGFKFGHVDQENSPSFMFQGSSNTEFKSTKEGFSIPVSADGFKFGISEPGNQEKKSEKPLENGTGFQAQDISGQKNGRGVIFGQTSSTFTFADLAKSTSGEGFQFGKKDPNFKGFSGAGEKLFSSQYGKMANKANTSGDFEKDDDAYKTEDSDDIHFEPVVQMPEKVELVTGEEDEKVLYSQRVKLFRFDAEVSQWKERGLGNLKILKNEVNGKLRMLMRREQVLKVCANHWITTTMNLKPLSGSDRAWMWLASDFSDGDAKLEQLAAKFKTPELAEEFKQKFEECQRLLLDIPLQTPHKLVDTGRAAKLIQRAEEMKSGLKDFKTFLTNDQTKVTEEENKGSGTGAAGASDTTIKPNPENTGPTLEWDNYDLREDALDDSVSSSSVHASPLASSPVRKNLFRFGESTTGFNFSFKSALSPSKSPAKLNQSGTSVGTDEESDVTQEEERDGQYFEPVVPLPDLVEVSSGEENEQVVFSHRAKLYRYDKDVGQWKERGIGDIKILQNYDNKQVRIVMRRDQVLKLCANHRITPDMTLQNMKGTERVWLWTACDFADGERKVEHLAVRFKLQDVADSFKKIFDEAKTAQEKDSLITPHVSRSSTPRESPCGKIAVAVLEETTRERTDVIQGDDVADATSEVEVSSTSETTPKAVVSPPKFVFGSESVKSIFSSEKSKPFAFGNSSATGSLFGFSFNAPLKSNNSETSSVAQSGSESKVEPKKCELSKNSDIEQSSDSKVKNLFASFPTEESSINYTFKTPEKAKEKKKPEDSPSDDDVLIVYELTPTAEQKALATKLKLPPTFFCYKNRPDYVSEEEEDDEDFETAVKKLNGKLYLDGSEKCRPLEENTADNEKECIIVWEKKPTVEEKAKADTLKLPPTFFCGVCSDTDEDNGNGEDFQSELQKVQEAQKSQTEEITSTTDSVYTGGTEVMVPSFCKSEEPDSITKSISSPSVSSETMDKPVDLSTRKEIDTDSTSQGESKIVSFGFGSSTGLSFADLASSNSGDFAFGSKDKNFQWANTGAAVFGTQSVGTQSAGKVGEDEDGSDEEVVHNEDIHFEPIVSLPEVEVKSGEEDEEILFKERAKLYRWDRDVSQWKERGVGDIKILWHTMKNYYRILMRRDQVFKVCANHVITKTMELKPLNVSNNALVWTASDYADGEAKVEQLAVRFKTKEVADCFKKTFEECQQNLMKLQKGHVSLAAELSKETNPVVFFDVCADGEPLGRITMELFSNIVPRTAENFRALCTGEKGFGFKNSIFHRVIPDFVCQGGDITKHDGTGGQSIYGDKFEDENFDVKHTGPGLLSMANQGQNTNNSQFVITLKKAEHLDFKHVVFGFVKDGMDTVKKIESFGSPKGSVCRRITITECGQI
UniProt Q9ULZ3, whole entry, looked up: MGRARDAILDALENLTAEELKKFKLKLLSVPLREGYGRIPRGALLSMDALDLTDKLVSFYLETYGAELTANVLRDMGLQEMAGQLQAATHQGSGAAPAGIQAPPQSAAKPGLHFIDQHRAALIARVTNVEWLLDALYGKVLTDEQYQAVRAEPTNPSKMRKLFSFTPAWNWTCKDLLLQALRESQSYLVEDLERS
UniProt Q9NR77: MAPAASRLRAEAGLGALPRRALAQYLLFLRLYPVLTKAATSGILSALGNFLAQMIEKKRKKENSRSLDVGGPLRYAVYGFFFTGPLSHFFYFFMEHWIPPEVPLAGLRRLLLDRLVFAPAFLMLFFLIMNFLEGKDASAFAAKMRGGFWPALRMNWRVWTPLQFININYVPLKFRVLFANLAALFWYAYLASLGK

How the values were obtained:
Experiment in all cases: log2 fold change, soluble protein after heating vs DMSO (PISA); higher = thermal stabilisation; K562 lysate, 10 uM; active = over 0.2 and 3.5 SD of the protein, either way, in both replicates (recomputed)
[1] = compound: CN1CC[C@H](c2c(O)cc(O)c3c(=O)cc(-c4ccccc4Cl)oc23)[C@H](O)C1 [alvocidib]
Outline: (§1)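 K562 pellets were dounce-homogenised in PBS pH 7.4 with 1 mM MgCl2, and the crude extract at 1 mg/mL protein was treated with 10 μM compound for 30 min. Aliquots were heated for 3 min across 48°C-58°C, pooled, and brought to 0.5% NP-40 at 4°C; soluble protein was the supernatant after 21,000xg for 90 min. Soluble protein was quantified by TMTpro 16plex LC-MS/MS with channel sums equalised, and reported as log2 fold change in thermal stability against DMSO controls, with values from duplicates.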

[2] = compound: CN1CCc2c(c3ccccc3n2Cc2ccc(C(=O)NO)cc2)C1 [Tubastatin A]
Outline: as §1

[3] = compound: CNC(=O)C1=CC=CC=C1NC2=NC(=NC=C2Cl)NC3=C(C=C(C=C3)N4CCOCC4)OC
Outline: as §1

[4] = compound: CNC(=O)c1ccc(Nc2ncc(C(F)(F)F)c(NCc3nccnc3N(C)S(C)(=O)=O)n2)cc1 [defactinib]
Outline: as §1

[5] = compound: CNc1nc(-c2ccc3c(N)n[nH]c3c2)cc(N2C[C@@H](C(=O)NC3CCCCC3)CC[C@H]2C)n1
Outline: as §1

[6] = compound: COC(=O)N[C@@H](C)CNc1nccc(-c2cn(C(C)C)nc2-c2cc(Cl)cc(NS(C)(=O)=O)c2F)n1 [encorafenib]
Outline: as §1

[7] = compound: COC(=O)[C@H](CCSC)NC(=O)C1=C(C=C(C=C1)NC[C@H](CS)N)C2=CC=CC=C2
Outline: as §1

[8] = compound: COc1cc(Nc2ncc3c(n2)-c2ccc(Cl)cc2C(c2c(F)cccc2OC)=NC3)ccc1C(=O)O [alisertib]
Outline: as §1

[9] = compound: COc1cc2nc(-c3cc(F)ccc3O)nc(N[C@@H]3CNC[C@H]3C(C)(C)O)c2cc1OC
Outline: as §1

[10] = compound: COc1cc2ncnc(Nc3ccc(F)c(Cl)c3)c2cc1OCCCN1CCOCC1 [gefitinib]
Outline: as §1

[11] = compound: CS(=O)(=O)CCNCc1ccc(-c2ccc3ncnc(Nc4ccc(OCc5cccc(F)c5)c(Cl)c4)c3c2)o1 [lapatinib]
Outline: as §1

[12] = compound: CS(=O)(=O)N1CCN(Cc2cc3nc(-c4cccc5[nH]ncc45)nc(N4CCOCC4)c3s2)CC1 [pictilisib]
Outline: as §1

[13] = compound: C[C@@H](Oc1cc(-c2cnn(C3CCNCC3)c2)cnc1N)c1c(Cl)ccc(F)c1Cl [crizotinib]
Outline: as §1

[14] = compound: C[C@H](C1=CC=C(C=C1)C(=O)NC2=C3C=CNC3=NC=C2)N
Outline: as §1

[15] = compound: C[C@H](Nc1ncnc2nc[nH]c12)c1cc2cccc(Cl)c2c(=O)n1-c1ccccc1 [duvelisib]
Outline: as §1

[16] = compound: Cc1cc(Nc2cc(CN3CCOCC3)c3nc(C)c(Cc4ccc(Cl)cc4F)n3n2)n[nH]1 [gandotinib]
Outline: as §1

[17] = compound: Cc1cc(Nc2cc(N3CCN(C)CC3)nc(Sc3ccc(NC(=O)C4CC4)cc3)n2)n[nH]1 [tozasertib]
Outline: as §1

[18] = compound: Cc1ccc(-n2nc(C(C)(C)C)cc2NC(=O)Nc2ccc(OCCN3CCOCC3)c3ccccc23)cc1 [doramapimod]
Outline: as §1

[19] = compound: Cc1ccc(NC(=O)c2ccc(CN3CC[C@H](N(C)C)C3)c(C(F)(F)F)c2)cc1Nc1nccc(-c2cncnc2)n1 [bafetinib]
Outline: as §1

[20] = compound: Cc1cccc(CC(=O)N2CCc3c2ccc(-c2cn(C)c4ncnc(N)c24)c3F)n1
Outline: as §1

Measured: log2 fold change

RAP2A (UniProt P10114)
inactive: [1] 0.003 | [2] 0.066 | [3] 0.015 | [4] 0.12 | [5] 0.051 | [6] 0.008 | [7] -0.054 | [8] 0.003 | [9] 0.026 | [10] 0 | [11] -0.065 | [12] -0.039 | [13] -0.015 | [14] -0.017 | [15] 0.019 | [16] 0.001 | [17] -0.017 | [18] -0.014 | [19] 0.015 | [20] -0.011

QPCTL (UniProt Q9NXS2)
inactive: [1] -0.018 | [2] -0.037 | [3] 0 | [4] 0.082 | [5] 0.024 | [6] 0.023 | [7] 0.075 | [8] 0.117 | [9] -0.066 | [10] -0.007 | [11] -0.019 | [12] 0 | [13] -0.163 | [14] -0.013 | [15] 0.038 | [16] -0.023 | [17] -0.019 | [18] -0.029 | [19] -0.051 | [20] 0.059

QARS (UniProt P47897)
inactive: [1] 0.029 | [2] -0.064 | [3] -0.016 | [4] 0.043 | [5] -0.01 | [6] 0 | [7] 0.102 | [8] -0.006 | [9] -0.001 | [10] -0.014 | [11] -0.022 | [12] -0.003 | [13] -0.036 | [14] 0.03 | [15] 0.01 | [16] -0.14 | [17] -0.032 | [18] 0.04 | [19] -0.053 | [20] -0.029

RAB11B (UniProt Q15907)
inactive: [1] 0 | [2] 0.093 | [3] -0.03 | [4] -0.015 | [5] -0.009 | [6] -0.036 | [7] -0.019 | [8] 0.037 | [9] 0.028 | [10] 0.014 | [11] -0.009 | [12] -0.032 | [13] 0.006 | [14] -0.04 | [15] 0.039 | [16] -0.018 | [17] 0.018 | [18] 0.004 | [19] 0.036 | [20] 0.072

RAD51 (UniProt Q06609)
inactive: [1] -0.025 | [2] -0.076 | [3] -0.01 | [4] -0.098 | [5] -0.022 | [6] 0.071 | [7] 0.132 | [8] -0.018 | [9] 0.001 | [10] -0.056 | [11] 0.005 | [12] -0.09 | [13] -0.01 | [14] -0.142 | [15] 0.026 | [16] 0.002 | [17] -0.051 | [18] -0.025 | [19] -0.061 | [20] 0.013

RAB2A (UniProt P61019)
inactive: [1] -0.014 | [2] 0.017 | [3] 0.01 | [4] 0.03 | [5] -0.133 | [6] 0.091 | [7] -0.083 | [8] 0.039 | [9] 0.019 | [10] 0.016 | [11] -0.007 | [12] -0.009 | [13] 0.061 | [14] 0.003 | [15] -0.007 | [16] -0.072 | [17] 0.068 | [18] -0.025 | [19] -0.014 | [20] -0.038

RAB1B (UniProt Q9H0U4)
active: [14] -0.35 | [20] 0.242
inactive: [1] -0.146 | [2] 0.007 | [3] -0.016 | [4] -0.037 | [5] 0.01 | [6] 0.065 | [7] -0.058 | [8] 0.047 | [9] 0.003 | [10] 0.064 | [11] 0.021 | [12] 0.053 | [13] 0.031 | [15] 0.033 | [16] 0.156 | [17] 0.011 | [18] -0.052 | [19] -0.038

RACK1 (UniProt P63244)
inactive: [1] 0.048 | [2] -0.059 | [3] -0.01 | [4] -0.034 | [5] -0.06 | [6] -0.004 | [7] 0.037 | [8] 0.015 | [9] -0.004 | [10] -0.013 | [11] -0.009 | [12] 0.002 | [13] -0.007 | [14] 0.038 | [15] -0.005 | [16] -0.036 | [17] -0.016 | [18] 0.017 | [19] 0.038 | [20] -0.031

QRSL1 (UniProt Q9H0R6)
inactive: [1] -0.028 | [2] -0.021 | [3] -0.012 | [4] -0.068 | [5] -0.051 | [6] -0.015 | [7] -0.005 | [8] 0.014 | [9] 0.014 | [10] -0.045 | [11] 0.038 | [12] 0.044 | [13] 0.031 | [14] 0.105 | [15] 0.044 | [16] -0.04 | [17] 0.044 | [18] 0.003 | [19] -0.227 | [20] -0.022

RAB35 (UniProt Q15286)
inactive: [1] -0.03 | [2] 0.088 | [3] -0.003 | [4] 0.014 | [5] 0.025 | [6] 0.022 | [7] -0.056 | [8] 0.024 | [9] 0.103 | [10] 0.031 | [11] -0.022 | [12] 0.039 | [13] 0.037 | [14] -0.033 | [15] 0.006 | [16] -0.027 | [17] -0.01 | [18] -0.013 | [19] -0.002 | [20] 0.023

2 consecutive records from above, for reference:
RACK1 (UniProt P63244)
inactive: [1] 0.048 | [2] -0.059 | [3] -0.01 | [4] -0.034 | [5] -0.06 | [6] -0.004 | [7] 0.037 | [8] 0.015 | [9] -0.004 | [10] -0.013 | [11] -0.009 | [12] 0.002 | [13] -0.007 | [14] 0.038 | [15] -0.005 | [16] -0.036 | [17] -0.016 | [18] 0.017 | [19] 0.038 | [20] -0.031

QRSL1 (UniProt Q9H0R6)
inactive: [1] -0.028 | [2] -0.021 | [3] -0.012 | [4] -0.068 | [5] -0.051 | [6] -0.015 | [7] -0.005 | [8] 0.014 | [9] 0.014 | [10] -0.045 | [11] 0.038 | [12] 0.044 | [13] 0.031 | [14] 0.105 | [15] 0.044 | [16] -0.04 | [17] 0.044 | [18] 0.003 | [19] -0.227 | [20] -0.022

Continuation:

QPRT (UniProt Q15274)
inactive: [1] 0.003 | [2] 0.034 | [3] -0.008 | [4] 0.052 | [5] 0.055 | [6] 0 | [7] -0.042 | [8] 0.01 | [9] -0.008 | [10] -0.009 | [11] -0.009 | [12] 0.01 | [13] 0 | [14] -0.016 | [15] 0.048 | [16] 0.031 | [17] 0.01 | [18] -0.039 | [19] 0.018 | [20] 0.057

RABGAP1L isoform 3 (UniProt Q5R372)
inactive: [1] -0.028 | [2] -0.048 | [3] 0.005 | [4] -0.018 | [5] 0.052 | [6] 0.037 | [7] 0.002 | [8] -0.026 | [9] 0.026 | [10] 0.005 | [11] -0.028 | [12] 0.035 | [13] 0.002 | [14] -0.085 | [15] 0.012 | [16] 0.012 | [17] -0.043 | [18] 0.034 | [19] -0.033 | [20] 0.069

RANBP2 (UniProt P49792)
inactive: [1] -0.001 | [2] -0.169 | [3] 0.011 | [4] 0.004 | [5] -0.041 | [6] 0.038 | [7] 0.042 | [8] -0.01 | [9] 0 | [10] -0.013 | [11] 0.002 | [12] -0.001 | [13] -0.01 | [14] -0.009 | [15] -0.014 | [16] -0.069 | [17] 0.001 | [18] -0.002 | [19] -0.02 | [20] 0.06

PYCARD (UniProt Q9ULZ3)
inactive: [1] -0.019 | [2] 0.076 | [3] 0.021 | [4] 0 | [5] 0.063 | [6] -0.034 | [7] -0.073 | [8] -0.022 | [9] 0.013 | [10] 0.023 | [11] 0.003 | [12] -0.052 | [13] 0.019 | [14] 0 | [15] -0.014 | [16] 0.049 | [17] 0.037 | [18] 0.013 | [19] 0.03 | [20] 0.007

PXMP2 (UniProt Q9NR77)
inactive: [1] -0.067 | [2] 0.01 | [3] 0.053 | [4] 0.03 | [5] 0.095 | [6] 0.03 | [7] 0.012 | [8] 0.032 | [9] -0.035 | [10] -0.022 | [11] 0.02 | [12] -0.063 | [13] -0.003 | [14] -0.058 | [15] 0.016 | [16] 0.031 | [17] 0.012 | [18] 0.017 | [19] 0.047 | [20] 0.07

RAB6A isoform 4 (UniProt P20340)
inactive: [1] -0.005 | [2] 0.034 | [3] 0.05 | [4] 0.005 | [5] 0.027 | [6] 0.078 | [7] -0.046 | [8] 0.014 | [9] 0.029 | [10] -0.057 | [11] 0.067 | [12] -0.027 | [13] 0.044 | [14] -0.043 | [15] -0.004 | [16] 0.047 | [17] 0.01 | [18] -0.003 | [19] 0.009 | [20] -0.002
